Test results: the supplement of paper PMC8728848
The other results are listed elsewhere or left out.

Experiments:
Test in all cases: glycan array binding signal (z-score within array); higher = stronger binding
Settings in all cases: glycan notation: IUPAC condensed, linker removed
[1] = biological target: Neu5Ac(a2-3)Gal(b1-4)GlcNAc(b1-6)GalNAc
How it was run: (§1)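 The Consortium for Functional Glycomics database supplied 3228 glycan arrays, of which those lacking an available protein sequence were dropped. The binding signal, a within-array Z-score, was averaged across arrays of the same protein sequence and across linkers. Negative scores can be read as non-binding.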

[2] = biological target: Neu5Ac(a2-3)Gal(b1-4)GlcNAc(b1-6)[Gal(b1-3)]GalNAc
How it was run: as §1

[3] = biological target: Neu5Ac(a2-3)Gal(b1-4)GlcNAc(b1-6)[Neu5Ac(a2-3)Gal(b1-3)]GalNAc
How it was run: as §1

[4] = biological target: Neu5Ac(a2-3)Gal(b1-4)GlcNAc6S
How it was run: as §1

[5] = biological target: Neu5Ac(a2-3)Gal(b1-4)[Fuc(a1-3)]GlcNAc
How it was run: as §1

[6] = biological target: Neu5Ac(a2-3)Gal(b1-4)[Fuc(a1-3)]GlcNAc(b1-2)Man
How it was run: as §1

[7] = biological target: Neu5Ac(a2-3)Gal(b1-4)[Fuc(a1-3)]GlcNAc(b1-3)Gal
How it was run: as §1

[8] = biological target: Neu5Ac(a2-3)Gal(b1-4)[Fuc(a1-3)]GlcNAc(b1-3)Gal(b1-4)GlcNAc
How it was run: as §1

[9] = biological target: Neu5Ac(a2-3)Gal(b1-4)[Fuc(a1-3)]GlcNAc(b1-3)Gal(b1-4)[Fuc(a1-3)]GlcNAc(b1-3)Gal(b1-4)[Fuc(a1-3)]GlcNAc
How it was run: as §1

[10] = biological target: Neu5Ac(a2-3)Gal(b1-4)[Fuc(a1-3)]GlcNAc(b1-3)GalNAc
How it was run: as §1

[11] = biological target: Neu5Ac(a2-3)Gal(b1-4)[Fuc(a1-3)]GlcNAc(b1-6)[Gal(b1-3)]GalNAc
How it was run: as §1

[12] = biological target: Neu5Ac(a2-3)Gal(b1-4)[Fuc(a1-3)]GlcNAc(b1-6)[Neu5Ac(a2-3)Gal(b1-3)]GalNAc
How it was run: as §1

[13] = biological target: Neu5Ac(a2-3)Gal(b1-4)[Fuc(a1-3)]GlcNAc6S
How it was run: as §1

[14] = biological target: Neu5Ac(a2-3)Gal6S(b1-4)GlcNAc
How it was run: as §1

[15] = biological target: Neu5Ac(a2-3)Gal6S(b1-4)[Fuc(a1-3)]GlcNAc
How it was run: as §1

Neu5Ac(a2-3)GalNAc = biological target: Neu5Ac(a2-3)GalNAc
How it was run: as §1

[16] = biological target: Neu5Ac(a2-3)GalNAc(b1-4)GlcNAc
How it was run: as §1

[17] = biological target: Neu5Ac(a2-3)[GalNAc(b1-4)]Gal(b1-4)Glc
How it was run: as §1

[18] = biological target: Neu5Ac(a2-3)[GalNAc(b1-4)]Gal(b1-4)GlcNAc
How it was run: as §1

[19] = biological target: Neu5Ac(a2-3)[GalNAc(b1-4)]Gal(b1-4)GlcNAc(b1-3)GalNAc
How it was run: as §1

[20] = biological target: Neu5Ac(a2-3)[Neu5Ac(a2-6)]GalNAc
How it was run: as §1

Neu5Ac(a2-6)Gal = biological target: Neu5Ac(a2-6)Gal
How it was run: as §1

[21] = biological target: Neu5Ac(a2-6)Gal(b1-3)GlcNAc(b1-3)[Gal(b1-4)GlcNAc(b1-6)]Gal(b1-4)Glc
How it was run: as §1

Neu5Ac(a2-6)Gal(b1-4)Glc = biological target: Neu5Ac(a2-6)Gal(b1-4)Glc
How it was run: as §1

[22] = biological target: Neu5Ac(a2-6)Gal(b1-4)GlcNAc
How it was run: as §1

[23] = biological target: Neu5Ac(a2-6)Gal(b1-4)GlcNAc(b1-2)Man
How it was run: as §1

[24] = biological target: Neu5Ac(a2-6)Gal(b1-4)GlcNAc(b1-2)Man(a1-3)Man(b1-4)GlcNAc(b1-4)GlcNAc
How it was run: as §1

[25] = biological target: Neu5Ac(a2-6)Gal(b1-4)GlcNAc(b1-2)Man(a1-3)[Gal(b1-4)GlcNAc(b1-2)Man(a1-6)]Man(b1-4)GlcNAc(b1-4)GlcNAc
How it was run: as §1

[26] = biological target: Neu5Ac(a2-6)Gal(b1-4)GlcNAc(b1-2)Man(a1-3)[GlcNAc(b1-4)][Neu5Ac(a2-6)Gal(b1-4)GlcNAc(b1-2)Man(a1-6)]Man(b1-4)GlcNAc(b1-4)GlcNAc
How it was run: as §1

[27] = biological target: Neu5Ac(a2-6)Gal(b1-4)GlcNAc(b1-2)Man(a1-3)[Man(a1-6)]Man(b1-4)GlcNAc(b1-4)GlcNAc
How it was run: as §1

[28] = biological target: Neu5Ac(a2-6)Gal(b1-4)GlcNAc(b1-2)Man(a1-3)[Neu5Ac(a2-3)Gal(b1-4)GlcNAc(b1-2)Man(a1-6)]Man(b1-4)GlcNAc(b1-4)GlcNAc
How it was run: as §1

[29] = biological target: Neu5Ac(a2-6)Gal(b1-4)GlcNAc(b1-2)Man(a1-3)[Neu5Ac(a2-6)Gal(b1-4)GlcNAc(b1-2)Man(a1-6)]Man(b1-4)GlcNAc(b1-4)GlcNAc
How it was run: as §1

[30] = biological target: Neu5Ac(a2-6)Gal(b1-4)GlcNAc(b1-2)Man(a1-3)[Neu5Ac(a2-6)Gal(b1-4)GlcNAc(b1-2)Man(a1-6)]Man(b1-4)GlcNAc(b1-4)[Fuc(a1-6)]GlcNAc
How it was run: as §1

[31] = biological target: Neu5Ac(a2-6)Gal(b1-4)GlcNAc(b1-2)Man(a1-6)Man(b1-4)GlcNAc(b1-4)GlcNAc
How it was run: as §1

[32] = biological target: Neu5Ac(a2-6)Gal(b1-4)GlcNAc(b1-2)Man(a1-6)[Gal(b1-4)GlcNAc(b1-2)Man(a1-3)]Man(b1-4)GlcNAc(b1-4)GlcNAc
How it was run: as §1

[33] = biological target: Neu5Ac(a2-6)Gal(b1-4)GlcNAc(b1-2)Man(a1-6)[GlcNAc(b1-2)Man(a1-3)]Man(b1-4)GlcNAc(b1-4)GlcNAc
How it was run: as §1

[34] = biological target: Neu5Ac(a2-6)Gal(b1-4)GlcNAc(b1-2)Man(a1-6)[Man(a1-3)]Man(b1-4)GlcNAc(b1-4)GlcNAc
How it was run: as §1

[35] = biological target: Neu5Ac(a2-6)Gal(b1-4)GlcNAc(b1-2)[Neu5Ac(a2-6)Gal(b1-4)GlcNAc(b1-4)]Man(a1-3)[GlcNAc(b1-4)][Neu5Ac(a2-6)Gal(b1-4)GlcNAc(b1-2)[Neu5Ac(a2-6)Gal(b1-4)GlcNAc(b1-6)]Man(a1-6)]Man(b1-4)GlcNAc(b1-4)GlcNAc
How it was run: as §1

[36] = biological target: Neu5Ac(a2-6)Gal(b1-4)GlcNAc(b1-2)[Neu5Ac(a2-6)Gal(b1-4)GlcNAc(b1-4)]Man(a1-3)[GlcNAc(b1-4)][Neu5Ac(a2-6)Gal(b1-4)GlcNAc(b1-4)Man(a1-6)]Man(b1-4)GlcNAc(b1-4)GlcNAc
How it was run: as §1

[37] = biological target: Neu5Ac(a2-6)Gal(b1-4)GlcNAc(b1-2)[Neu5Ac(a2-6)Gal(b1-4)GlcNAc(b1-6)]Man(a1-6)[Neu5Ac(a2-6)Gal(b1-4)GlcNAc(b1-2)Man(a1-3)][GlcNAc(b1-4)]Man(b1-4)GlcNAc(b1-4)GlcNAc
How it was run: as §1

[38] = biological target: Neu5Ac(a2-6)Gal(b1-4)GlcNAc(b1-3)Gal(b1-3)GlcNAc
How it was run: as §1

[39] = biological target: Neu5Ac(a2-6)Gal(b1-4)GlcNAc(b1-3)Gal(b1-4)GlcNAc
How it was run: as §1

[40] = biological target: Neu5Ac(a2-6)Gal(b1-4)GlcNAc(b1-3)Gal(b1-4)GlcNAc(b1-2)Man(a1-3)[Neu5Ac(a2-6)Gal(b1-4)GlcNAc(b1-3)Gal(b1-4)GlcNAc(b1-2)Man(a1-6)]GalNAc
How it was run: as §1

[41] = biological target: Neu5Ac(a2-6)Gal(b1-4)GlcNAc(b1-3)Gal(b1-4)GlcNAc(b1-3)Gal(b1-4)GlcNAc
How it was run: as §1

[42] = biological target: Neu5Ac(a2-6)Gal(b1-4)GlcNAc(b1-3)Gal(b1-4)GlcNAc(b1-3)Gal(b1-4)GlcNAc(b1-2)Man(a1-3)[Neu5Ac(a2-6)Gal(b1-4)GlcNAc(b1-3)Gal(b1-4)GlcNAc(b1-3)Gal(b1-4)GlcNAc(b1-2)Man(a1-6)]GalNAc
How it was run: as §1

B1: OS9 (Arabidopsis thaliana) (protein)
chain: MRGSHHHHHHGMASMTGGQQMGRDLYDDDDKSRLQIFPAHLVGTFSRNNREPKYKIEFLPEDSPFHPGDNLESMVMLDKHGNRFLCYLPKEEKATSGWTSSQQNISTVMMETQQLVKLKTPDELLQPLSEKCLFRQEGWWSYEFCHQKYVRQLHVEDENKIVQEFFLGTFDPEATAAFNQTVSDASTDASQRYHSHVYTNGTTCDLTGSPREVEVRFVCAETRAMVTSITELSTCKYALTVQCPTLCKHPLFQLEKPVSHTIHCNAIPVEEDATRNKEEQAVDESPKMIADS
For B1, the “glycan array binding signal (z-score)” value [1] was -0.883, the “glycan array binding signal (z-score)” value [2] was -0.157 and the “glycan array binding signal (z-score)” value [3] was -0.353. The “glycan array binding signal (z-score)” value [4] was -0.226, the “glycan array binding signal (z-score)” value [5] was -0.32 and the “glycan array binding signal (z-score)” value [6] was 0.868. The “glycan array binding signal (z-score)” value [7] was -0.346, the “glycan array binding signal (z-score)” value [8] was -0.726 and the “glycan array binding signal (z-score)” value [9] was 0.045. For the same binder, the “glycan array binding signal (z-score)” value [10] was 0.633, the “glycan array binding signal (z-score)” value [11] was -0.673 and the “glycan array binding signal (z-score)” value [12] was -0.269. For the same binder, the “glycan array binding signal (z-score)” value [13] was 2.52, the “glycan array binding signal (z-score)” value [14] was -0.966 and the “glycan array binding signal (z-score)” value [15] was -0.413. The “glycan array binding signal (z-score)” value (Neu5Ac(a2-3)GalNAc) was 0.064, the “glycan array binding signal (z-score)” value [16] was -0.344 and the “glycan array binding signal (z-score)” value [17] was -0.249. The “glycan array binding signal (z-score)” value [18] was -0.562, the “glycan array binding signal (z-score)” value [19] was -0.75 and the “glycan array binding signal (z-score)” value [20] was 0.459. The “glycan array binding signal (z-score)” value (Neu5Ac(a2-6)Gal) was -1.06, the “glycan array binding signal (z-score)” value [21] was -0.523 and the “glycan array binding signal (z-score)” value (Neu5Ac(a2-6)Gal(b1-4)Glc) was -0.102. The “glycan array binding signal (z-score)” value [22] was -0.55, the “glycan array binding signal (z-score)” value [23] was -0.824 and the “glycan array binding signal (z-score)” value [24] was 6.74. The “glycan array binding signal (z-score)” value [25] was -0.814, the “glycan array binding signal (z-score)” value [26] was -0.429 and the “glycan array binding signal (z-score)” value [27] was -0.737. The “glycan array binding signal (z-score)” value [28] was -0.742, the “glycan array binding signal (z-score)” value [29] was -0.5 and the “glycan array binding signal (z-score)” value [30] was 0.382. The “glycan array binding signal (z-score)” value [31] was -0.276, the “glycan array binding signal (z-score)” value [32] was -0.208 and the “glycan array binding signal (z-score)” value [33] was -0.096. For the same binder, the “glycan array binding signal (z-score)” value [34] was -0.057, the “glycan array binding signal (z-score)” value [35] was -0.275 and the “glycan array binding signal (z-score)” value [36] was -0.592. The “glycan array binding signal (z-score)” value [37] was 0.585, the “glycan array binding signal (z-score)” value [38] was 0.786 and the “glycan array binding signal (z-score)” value [39] was -0.376. For the same binder, the “glycan array binding signal (z-score)” value [40] was -0.47, the “glycan array binding signal (z-score)” value [41] was -1.18 and the “glycan array binding signal (z-score)” value [42] was -0.41.
